Article PMC7042714
No constants are given. Whether binding was seen depends on the method and setting. Binding seen in cells or lysates may run through a third protein. Here binding means that the protein was enriched with, or labelled near, the bait; the list need not be complete. A no says only that the protein was not detected with the bait.

Amino acid sequences for entries named in this document (tags omitted).
UniProt Q9BVL2: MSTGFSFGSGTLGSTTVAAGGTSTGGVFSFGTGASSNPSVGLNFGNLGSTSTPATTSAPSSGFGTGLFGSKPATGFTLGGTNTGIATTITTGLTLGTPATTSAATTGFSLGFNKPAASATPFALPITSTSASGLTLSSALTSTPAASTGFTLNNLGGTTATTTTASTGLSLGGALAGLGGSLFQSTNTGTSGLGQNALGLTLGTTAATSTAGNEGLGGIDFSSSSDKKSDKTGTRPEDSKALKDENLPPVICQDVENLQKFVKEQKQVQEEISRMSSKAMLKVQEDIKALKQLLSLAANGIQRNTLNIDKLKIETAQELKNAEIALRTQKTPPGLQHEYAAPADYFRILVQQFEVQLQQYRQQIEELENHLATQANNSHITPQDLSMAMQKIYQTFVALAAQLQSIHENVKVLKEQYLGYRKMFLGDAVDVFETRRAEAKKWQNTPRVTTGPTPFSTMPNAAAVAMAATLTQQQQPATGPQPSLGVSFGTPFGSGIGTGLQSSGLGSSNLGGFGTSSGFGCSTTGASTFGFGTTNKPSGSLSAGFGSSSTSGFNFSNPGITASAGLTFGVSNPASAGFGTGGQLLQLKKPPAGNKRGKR
UniProt Q92621: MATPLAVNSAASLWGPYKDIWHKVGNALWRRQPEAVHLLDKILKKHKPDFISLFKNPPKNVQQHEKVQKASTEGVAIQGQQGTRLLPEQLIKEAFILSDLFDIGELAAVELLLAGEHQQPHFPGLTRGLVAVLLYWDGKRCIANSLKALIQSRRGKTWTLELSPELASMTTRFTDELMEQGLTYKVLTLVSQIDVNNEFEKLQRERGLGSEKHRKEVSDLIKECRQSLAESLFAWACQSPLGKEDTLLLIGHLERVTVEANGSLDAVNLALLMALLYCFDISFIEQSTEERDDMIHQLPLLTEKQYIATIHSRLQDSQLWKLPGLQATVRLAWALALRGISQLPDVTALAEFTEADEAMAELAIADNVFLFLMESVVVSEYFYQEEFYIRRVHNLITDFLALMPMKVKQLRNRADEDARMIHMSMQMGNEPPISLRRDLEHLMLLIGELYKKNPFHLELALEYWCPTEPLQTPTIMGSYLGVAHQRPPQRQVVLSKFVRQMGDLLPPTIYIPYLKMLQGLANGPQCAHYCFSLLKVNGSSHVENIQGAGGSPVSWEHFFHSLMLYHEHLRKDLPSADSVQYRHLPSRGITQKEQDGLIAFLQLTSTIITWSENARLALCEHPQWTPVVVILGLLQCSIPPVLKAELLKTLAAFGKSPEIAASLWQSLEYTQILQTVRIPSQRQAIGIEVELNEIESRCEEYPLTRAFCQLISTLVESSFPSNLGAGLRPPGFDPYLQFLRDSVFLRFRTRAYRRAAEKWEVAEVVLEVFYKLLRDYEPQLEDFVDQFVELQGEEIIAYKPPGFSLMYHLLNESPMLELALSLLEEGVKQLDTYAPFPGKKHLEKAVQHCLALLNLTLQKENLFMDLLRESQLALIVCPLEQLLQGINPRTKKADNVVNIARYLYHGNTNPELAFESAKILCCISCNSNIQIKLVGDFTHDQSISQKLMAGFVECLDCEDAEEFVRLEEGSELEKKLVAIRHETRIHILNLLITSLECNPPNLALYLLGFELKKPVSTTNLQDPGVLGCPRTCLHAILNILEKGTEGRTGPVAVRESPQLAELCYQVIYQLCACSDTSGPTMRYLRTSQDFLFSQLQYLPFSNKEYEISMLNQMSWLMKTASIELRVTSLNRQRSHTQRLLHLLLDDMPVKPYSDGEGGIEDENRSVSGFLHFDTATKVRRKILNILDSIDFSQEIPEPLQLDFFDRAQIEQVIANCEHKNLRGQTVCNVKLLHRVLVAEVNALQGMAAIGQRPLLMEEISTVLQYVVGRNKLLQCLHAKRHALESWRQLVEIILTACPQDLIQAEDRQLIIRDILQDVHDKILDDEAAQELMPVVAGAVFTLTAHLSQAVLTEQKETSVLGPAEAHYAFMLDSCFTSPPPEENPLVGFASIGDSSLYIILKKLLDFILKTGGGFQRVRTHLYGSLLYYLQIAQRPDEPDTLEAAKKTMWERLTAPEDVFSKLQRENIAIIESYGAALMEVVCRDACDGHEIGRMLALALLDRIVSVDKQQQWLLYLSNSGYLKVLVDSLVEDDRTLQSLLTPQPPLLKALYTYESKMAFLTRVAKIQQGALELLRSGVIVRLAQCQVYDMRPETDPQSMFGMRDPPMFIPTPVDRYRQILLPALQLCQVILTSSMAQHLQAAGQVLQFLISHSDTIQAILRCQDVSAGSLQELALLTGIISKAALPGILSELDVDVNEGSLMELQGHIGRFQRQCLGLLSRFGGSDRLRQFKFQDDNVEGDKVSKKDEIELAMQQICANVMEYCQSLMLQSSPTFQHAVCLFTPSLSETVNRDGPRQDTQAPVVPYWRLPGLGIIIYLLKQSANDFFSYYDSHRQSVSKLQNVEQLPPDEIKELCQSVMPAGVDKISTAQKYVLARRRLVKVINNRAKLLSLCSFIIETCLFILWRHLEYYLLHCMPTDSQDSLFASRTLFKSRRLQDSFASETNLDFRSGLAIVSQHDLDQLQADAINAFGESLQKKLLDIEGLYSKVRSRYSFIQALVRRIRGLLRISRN
UniProt P12270: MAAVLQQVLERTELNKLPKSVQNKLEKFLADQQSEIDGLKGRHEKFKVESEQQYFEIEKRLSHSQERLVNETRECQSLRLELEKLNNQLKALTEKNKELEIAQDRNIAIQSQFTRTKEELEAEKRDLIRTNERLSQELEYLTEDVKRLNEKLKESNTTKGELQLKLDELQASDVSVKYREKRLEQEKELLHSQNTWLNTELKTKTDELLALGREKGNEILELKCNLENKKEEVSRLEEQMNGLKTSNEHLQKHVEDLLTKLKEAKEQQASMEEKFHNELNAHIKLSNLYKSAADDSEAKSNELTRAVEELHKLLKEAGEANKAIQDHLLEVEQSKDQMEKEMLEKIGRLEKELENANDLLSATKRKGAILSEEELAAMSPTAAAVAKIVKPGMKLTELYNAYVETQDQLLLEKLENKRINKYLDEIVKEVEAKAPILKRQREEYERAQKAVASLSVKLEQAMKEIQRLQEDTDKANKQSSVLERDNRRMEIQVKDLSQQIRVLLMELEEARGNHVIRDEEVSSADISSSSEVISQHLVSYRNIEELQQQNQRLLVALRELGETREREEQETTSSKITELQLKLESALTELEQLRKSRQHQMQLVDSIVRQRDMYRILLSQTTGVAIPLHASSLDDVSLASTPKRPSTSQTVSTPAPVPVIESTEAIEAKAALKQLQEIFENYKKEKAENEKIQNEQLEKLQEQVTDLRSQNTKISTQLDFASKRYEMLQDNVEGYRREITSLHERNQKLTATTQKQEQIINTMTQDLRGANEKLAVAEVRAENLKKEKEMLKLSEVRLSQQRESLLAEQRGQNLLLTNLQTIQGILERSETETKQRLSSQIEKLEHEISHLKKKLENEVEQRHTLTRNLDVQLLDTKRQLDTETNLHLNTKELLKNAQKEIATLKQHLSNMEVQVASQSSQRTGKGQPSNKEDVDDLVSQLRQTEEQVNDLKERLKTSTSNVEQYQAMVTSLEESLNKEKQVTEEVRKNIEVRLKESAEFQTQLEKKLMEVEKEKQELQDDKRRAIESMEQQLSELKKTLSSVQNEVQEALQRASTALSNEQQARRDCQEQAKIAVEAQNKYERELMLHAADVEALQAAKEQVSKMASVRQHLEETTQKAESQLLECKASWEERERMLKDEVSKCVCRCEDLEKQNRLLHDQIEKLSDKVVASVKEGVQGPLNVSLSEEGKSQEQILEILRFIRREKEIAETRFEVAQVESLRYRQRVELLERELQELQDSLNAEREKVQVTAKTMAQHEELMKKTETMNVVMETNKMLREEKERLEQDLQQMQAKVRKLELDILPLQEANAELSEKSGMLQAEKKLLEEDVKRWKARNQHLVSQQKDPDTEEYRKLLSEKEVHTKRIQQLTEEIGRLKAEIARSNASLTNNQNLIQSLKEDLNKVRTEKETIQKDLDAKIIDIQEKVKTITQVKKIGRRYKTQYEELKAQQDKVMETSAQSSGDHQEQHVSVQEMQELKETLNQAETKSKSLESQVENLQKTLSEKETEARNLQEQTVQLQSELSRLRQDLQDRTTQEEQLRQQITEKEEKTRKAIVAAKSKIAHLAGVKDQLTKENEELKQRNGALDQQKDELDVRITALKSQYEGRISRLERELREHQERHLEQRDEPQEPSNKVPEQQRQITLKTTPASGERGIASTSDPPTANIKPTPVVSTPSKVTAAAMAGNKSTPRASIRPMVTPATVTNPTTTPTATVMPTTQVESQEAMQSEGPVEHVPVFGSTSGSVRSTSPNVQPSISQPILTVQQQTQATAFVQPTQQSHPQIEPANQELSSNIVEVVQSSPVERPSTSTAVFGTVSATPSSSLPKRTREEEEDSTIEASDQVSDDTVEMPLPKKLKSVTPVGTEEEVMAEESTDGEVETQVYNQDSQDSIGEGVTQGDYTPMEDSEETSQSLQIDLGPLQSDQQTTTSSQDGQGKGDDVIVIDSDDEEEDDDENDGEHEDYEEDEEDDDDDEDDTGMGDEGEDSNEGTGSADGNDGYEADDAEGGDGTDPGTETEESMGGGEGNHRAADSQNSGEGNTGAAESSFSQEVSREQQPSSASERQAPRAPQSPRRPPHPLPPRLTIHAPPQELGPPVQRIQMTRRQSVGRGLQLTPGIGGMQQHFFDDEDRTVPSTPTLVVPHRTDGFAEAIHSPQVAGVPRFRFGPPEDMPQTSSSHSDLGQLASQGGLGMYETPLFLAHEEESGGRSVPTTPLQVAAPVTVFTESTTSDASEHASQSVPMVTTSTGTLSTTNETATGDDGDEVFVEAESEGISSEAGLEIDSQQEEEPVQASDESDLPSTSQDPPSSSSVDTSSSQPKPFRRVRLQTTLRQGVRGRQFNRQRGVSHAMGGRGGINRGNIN

Molecular target: HA-Strep-tagged NUP58 (UniProt Q9BVL2)
Test: affinity purification with mass spectrometry; HA-Strep-NUP58 captured on StrepTactin Sepharose from lysate of HeLa Flp-In T-REx cells synchronized in interphase or mitosis; biotin eluate analysed by LC-MS/MS (DDA), spectral counts, three biological replicates; HA-Strep-GFP as control bait

| binding | Molecule |
| --- | --- |
| binds | NUP205 (from UniProt Q92621 1-2012) |
| no binding | TPR (from UniProt P12270 1-2363) |
| no binding | NUP50 (protein, UniProt Q9UKX7 1-468) MAKRNAEKELTDRNWDQEDEAEEVGTFSMASEEVLKNRAIKKAKRRNVGFESDTGGAFKGFKGLVVPSGGGRFSGFGSGAGGKPLEGLSNGNNITSAPPFASAKAAADPKVAFGSLAANGPTTLVDKVSNPKTNGDSQQPSSSGLASSKACVGNAYHKQLAALNCSVRDWIVKHVNTNPLCDLTPIFKDYEKYLANIEQQHGNSGRNSESESNKVAAETQSPSLFGSTKLQQESTFLFHGNKTEDTPDKKMEVASEKKTDPSSLGATSASFNFGKKVDSSVLGSLSSVPLTGFSFSPGNSSLFGKDTTQSKPVSSPFPTKPLEGQAEGDSGECKGGDEEENDEPPKVVVTEVKEEDAFYSKKCKLFYKKDNEFKEKGIGTLHLKPTANQKTQLLVRADTNLGNILLNVLIPPNMPCTRTGKNNVLIVCVPNPPIDEKNATMPVTMLIRVKTSEDADELHKILLEKKDA |
| binds | NUP93 (protein, UniProt Q8N1F7 1-819) MDTEGFGELLQQAEQLAAETEGISELPHVERNLQEIQQAGERLRSRTLTRTSQETADVKASVLLGSRGLDISHISQRLESLSAATTFEPLEPVKDTDIQGFLKNEKDNALLSAIEESRKRTFGMAEEYHRESMLVEWEQVKQRILHTLLASGEDALDFTQESEPSYISDVGPPGRSSLDNIEMAYARQIYIYNEKIVNGHLQPNLVDLCASVAELDDKSISDMWTMVKQMTDVLLTPATDALKNRSSVEVRMEFVRQALAYLEQSYKNYTLVTVFGNLHQAQLGGVPGTYQLVRSFLNIKLPAPLPGLQDGEVEGHPVWALIYYCMRCGDLLAASQVVNRAQHQLGEFKTWFQEYMNSKDRRLSPATENKLRLHYRRALRNNTDPYKRAVYCIIGRCDVTDNQSEVADKTEDYLWLKLNQVCFDDDGTSSPQDRLTLSQFQKQLLEDYGESHFTVNQQPFLYFQVLFLTAQFEAAVAFLFRMERLRCHAVHVALVLFELKLLLKSSGQSAQLLSHEPGDPPCLRRLNFVRLLMLYTRKFESTDPREALQYFYFLRDEKDSQGENMFLRCVSELVIESREFDMILGKLENDGSRKPGVIDKFTSDTKPIINKVASVAENKGLFEEAAKLYDLAKNADKVLELMNKLLSPVVPQISAPQSNKERLKNMALSIAERYRAQGISANKFVDSTFYLLLDLITFFDEYHSGHIDRAFDIIERLKLVPLNQESVEERVAAFRNFSDEIRHNLSEVLLATMNILFTQFKRLKGTSPSSSSRPQRVIEDRDSQLRSQARTLITFAGMIPYRTSGDTNARLVQMEVLMN |
